# Source: patent publication EP2835135A2, “Means and methods for treating pseudomonas infection” (Max-Planck-Gesellschaft zur Förderung der Wissenschaften …, priority 2013, dated 2015)
# At least one peptide structure holds a part that was inferred or is arguable (an end, a ring closure or a residue).
# Key:
# 14-3-3 [1] = biological target: T1, 14-3-3 (Homo sapiens, UniProt P63104); assay: FP competition experiment: labeled peptide preincubated with 14-3-3 and titrated with unlabeled WT peptide; assay type: binding; details: FITC-labeled peptide 20 nM, 14-3-3 4.0 µM, Figure 7
# T1 sequence (P63104 1-245): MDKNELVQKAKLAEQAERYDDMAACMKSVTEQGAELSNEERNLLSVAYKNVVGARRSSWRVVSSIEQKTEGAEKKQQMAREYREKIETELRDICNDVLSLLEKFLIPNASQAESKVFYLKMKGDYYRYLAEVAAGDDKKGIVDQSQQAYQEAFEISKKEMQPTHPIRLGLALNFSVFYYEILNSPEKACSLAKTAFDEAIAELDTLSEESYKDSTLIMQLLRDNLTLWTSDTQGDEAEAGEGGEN
# Description: The figures show: • Figure 1: (A) Schemetic representaion of ExoS' role in P. aeruginosa infection. (B) Crystal structure of 14-3-3 binding domain of ExoS bound to 14-3-3 (PDB 2002). • Figure 2: (A) Concept for an antibiotic strategy against P. aeruginosa. (B) Overlaid structures of 14-3-3 in complex with 14-3-3 binding domains of ExoS (PDB 2002) and endogenous phosphorylated sequences (PDB 1QJA, 1YWT, 2B05, 2BR9, 2BTP, 2C1J, 2C1N, 2C63, 2C74, 2NPM, 2IQV, 3LW1). • Figure 3: Alignment of 14-3-3 residues involved in inhibitor binding. • Figure 4: Dual assay for the identification of inhibitors of 14-3-3/ExoS interaction that would not affect interactions of 14-3-3 with endogenous binding parterns. L^1 and L^2 as well as L^3 and L^4 are chosen in order to allow a fluorescence polarization readout, ALPHA screen ("Amplified Luminescent Proximity Homogeneous Assay") or HRTF screen ("homogeneous time resolved fluorescence"; both ALPHA and HRTF screens are very sensitive homogeneous assay technologies that allow the screening of interactions in a proximity sensitive fashion). • Figure 5: (A) Crystal structure of ^420[…]^430 (sticks) complexed to 14-3-3 ζ ΔC (spacefill). The 2FC - F0 density is scaled to 1σ (grid). (B) Superimposition of truncated ExoS peptide (^420[…]^430) with the previously reported ExoS peptide (^416[…]^430, PDB 2002). […]
# 14-3-3 [2] = biological target: T1, 14-3-3; assay: Fluorescence polarization (FP) assay: fluorescein-labeled peptides titrated with unlabeled 14-3-3 protein; assay type: binding; details: β cross-links of varied linker length and configuration, Figure 6C
SMILES,displacement of the labeled peptide by unlabeled WT peptide (14-3-3 [1]),binding affinity (14-3-3 [2])
CC(=O)N[C@@H](CCC(N)=O)C(=O)NCC(=O)N[C@]1(C)CCCCCCCC[C@@](C)(C(=O)N[C@@H](CC(C)C)C(=O)N[C@@H](CC(=O)O)C(=O)N[C@@H](CC(C)C)C(=O)N[C@@H](C)C(=O)N[C@@H](CO)C(N)=O)NC(=O)[C@H](CC(=O)O)NC(=O)[C@H](CC(C)C)NC1=O [RS-8],displacement by unlabeled WT peptide,
CC(=O)N[C@@H](CCC(N)=O)C(=O)NCC(=O)N[C@@]1(C)CCCCCCCCCC[C@@](C)(C(=O)N[C@@H](CC(C)C)C(=O)N[C@@H](CC(=O)O)C(=O)N[C@@H](CC(C)C)C(=O)N[C@@H](C)C(=O)N[C@@H](CO)C(N)=O)NC(=O)[C@H](CC(=O)O)NC(=O)[C@H](CC(C)C)NC1=O [SS-10],,relatively high binding affinities
CC(=O)N[C@@H](CCC(N)=O)C(=O)NCC(=O)N[C@@]1(C)CCCCCCCCCCC[C@@](C)(C(=O)N[C@@H](CC(C)C)C(=O)N[C@@H](CC(=O)O)C(=O)N[C@@H](CC(C)C)C(=O)N[C@@H](C)C(=O)N[C@@H](CO)C(N)=O)NC(=O)[C@H](CC(=O)O)NC(=O)[C@H](CC(C)C)NC1=O [SS-11],,relatively high binding affinities
